These results are taken from PubChem BioAssay AID328 (DTP/NCI, 2004).

The test system of this assay is BDF1 mice, P388 leukemia ip, median survival T/C. Briefly: NCI In Vivo Anticancer Drug Screen. Data for tumor model P388 Leukemia (intraperitoneal) in B6D2F1 (BDF1) mice. The conditions noted are these: T/C endpoint: median survival time, higher T/C = longer survival. In outline:
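Vehicle-dosed animals serve as the reference; survival of compound-dosed, tumour-implanted mice is divided by it.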

[1] abbreviates: dose: 25.0 mg/kg/injection, schedule: Q01DX009 (ip), vehicle: saline.
The mark [2] stands for this setting: dose: 200.0 mg/kg/injection, schedule: Q04DX003 (ip), vehicle: saline.
The mark [3] stands for this setting: dose: 200.0 mg/kg/injection, schedule: Q01DX009 (ip), vehicle: saline with Tween-80.

The list is a part of this screen's results and no random one: it is rich in T/C values a quarter to a half above the control, in often repeated tests (any T/C) and in doses without a T/C. Further doses and runs are listed elsewhere. T/C: endpoint of the treated group in % of that of the vehicle group. Some entries give survivors of the animals treated and no T/C: the source files T/C as zero there, which appears to mark a toxic dose or a test without result, not a measured value. Some survivor counts are full or nearly so, which does not show that the dose was tolerated: survival well below the control is almost never listed, so the zero probably covers shortened survival too. Counts of survivors are from the toxicity check (mostly the fifth day) where no day follows; animals may have died later. Schedule codes are those of the source, taken here to give the interval after Q, in days (D) or hours (H), and the number of doses after X. Marks such as (2×) stand for listed records that agree. Some entries hold several experiments; their values stand side by side, smallest first. For survival time, this PubChem deposit counts one and a half times the control or more as active, and values a quarter to a half above the control carry no call in these data; other NCI protocols may use other cut-offs. Some T/C values carry the count of animals alive at the toxicity check (mostly the fifth day); where none is given, no animal had died by that day.

As to `CCCCCC(CN(C)C)C(=O)/C=C/c1ccc(Cl)c(Cl)c1` (centres undefined), the T/C is 142 % of control (dose: 6.25 mg/kg/injection, schedule: Q01DX009 (ip), vehicle: saline); 126 % of control (dose: 12.5 mg/kg/injection, schedule: Q01DX009 (ip), vehicle: saline); 136 % of control [5 of 6 alive] under setting [1]. Also, the survivor count by setting is: (dose: 35.0 mg/kg/injection, schedule: Q01DX009 (ip), vehicle: saline) 0 of 6; (dose: 55.0 mg/kg/injection, schedule: Q01DX009 (ip), vehicle: saline) 0 of 6; (dose: 80.0 mg/kg/injection, schedule: Q01DX009 (ip), vehicle: saline) 0 of 6; (dose: 100.0 mg/kg/injection, schedule: Q01DX001 (ip), vehicle: saline) 2 of 6; (dose: 200.0 mg/kg/injection, schedule: Q01DX001 (ip), vehicle: saline) 0 of 6.

In the case of `Cn1c(=O)c2nc(-c3ccc(Cl)c(Cl)c3)c(-c3ccc(Cl)c(Cl)c3)nc2n(C)c1=O`, under “dose: 12.5 mg/kg/injection, schedule: Q01DX001 (ip), vehicle: saline with Tween-80”, the T/C is 127 % of control. The survivor count (dose: 200.0 mg/kg/injection, schedule: Q01DX001 (ip), vehicle: saline with Tween-80) is 6 of 6.

On to `COC(=O)C(CSCc1ccccc1)NC(=O)CCNC(=O)OCc1ccccc1` (centres undefined), for which the T/C (dose: 25.0 mg/kg/injection, schedule: Q04DX003 (ip), vehicle: Klucel (hydroxypropylcellulose) (HPC)) is 127 % of control.

Take `OCC1OC(Nc2ccccc2/C=N\O)C(O)C1O` (centres undefined): under “dose: 50.0 mg/kg/injection, schedule: Q01DX009 (ip), vehicle: saline with Tween-80”, the T/C is 130 % of control.

`CCCCn1cnc2c(SC)ncnc21`: the T/C (dose: 50.0 mg/kg/injection, schedule: Q04DX003 (ip), vehicle: saline) is 127 % of control.

As for `CC(=O)c1ccc(NC(=O)N(CCCl)N=O)cc1`, the T/C reads like this: (dose: 0.66 mg/kg/injection, schedule: Q04DX003 (ip), vehicle: saline) 127 % of control; (dose: 1.5 mg/kg/injection, schedule: Q04DX003 (ip), vehicle: Klucel (hydroxypropylcellulose) (HPC)) 133 % of control; (dose: 2.3 mg/kg/injection, schedule: Q04DX003 (ip), vehicle: Klucel (hydroxypropylcellulose) (HPC)) 137 % of control.

`Cc1cc(C)nc(NS(=O)(=O)c2ccc(N=Nc3nc4[nH]c(N)nc(=S)c4[nH]3)cc2)n1`: the survivor count is on record as 6 of 6 (dose: 12.5 mg/kg/injection, schedule: Q01DX009 (ip), vehicle: Klucel (hydroxypropylcellulose) (HPC)); 4 of 6 (dose: 25.0 mg/kg/injection, schedule: Q01DX009 (ip), vehicle: Klucel (hydroxypropylcellulose) (HPC)); 6 of 6 (dose: 50.0 mg/kg/injection, schedule: Q01DX009 (ip), vehicle: Klucel (hydroxypropylcellulose) (HPC)); 5 of 6 (dose: 100.0 mg/kg/injection, schedule: Q01DX009 (ip), vehicle: Klucel (hydroxypropylcellulose) (HPC)); 2 of 6 (dose: 200.0 mg/kg/injection, schedule: Q01DX009 (ip), vehicle: Klucel (hydroxypropylcellulose) (HPC)).

As to `CCCCCC(=O)O[C@]1(C(C)=O)CC[C@H]2[C@@H]3CCC4=CC(=O)CC[C@]4(C)[C@H]3CC[C@@]21C`, the T/C (dose: 100.0 mg/kg/injection, schedule: Q01DX009 (ip), vehicle: saline with Tween-80) was 125 % of control [5 of 6 alive].

Take `C[n+]1cccc(NC(=O)c2ccc(NC(=O)c3ccc(C(=O)Nc4ccc(NC(=N)N)cc4)cc3)cc2)c1`: the T/C (dose: 2.2 mg/kg/injection, schedule: Q04DX003 (ip), vehicle: saline) was 145 % of control.

As for `COc1ccc(N2c3ccccc3-c3cc[nH]c(=O)c3[C@H]2O)cc1OC`, the T/C was 127 % of control (dose: 37.5 mg/kg/injection, schedule: Q01DX006 (ip), vehicle: Klucel (hydroxypropylcellulose) (HPC)) and 135 % of control (dose: 150.0 mg/kg/injection, schedule: Q01DX006 (ip), vehicle: Klucel (hydroxypropylcellulose) (HPC)). Besides, the survivor count (dose: 300.0 mg/kg/injection, schedule: Q01DX006 (ip), vehicle: Klucel (hydroxypropylcellulose) (HPC)) is 0 of 3.

On to `CNC(=N)c1ccc(NC(=N)c2ccc(NC(=N)c3ccc(NC(=O)Nc4ccc(C(=N)NC)cc4)cc3)cc2)cc1`, for which the T/C by setting is: (dose: 0.85 mg/kg/injection, schedule: Q01DX009 (ip), vehicle: saline) 130 % of control; (dose: 1.3 mg/kg/injection, schedule: Q01DX009 (ip), vehicle: saline) 130 % of control; (dose: 1.6 mg/kg/injection, schedule: Q04DX003 (ip), vehicle: saline) 127 % of control; (dose: 2.0 mg/kg/injection, schedule: Q01DX009 (ip), vehicle: saline) 137 and 138 % of control; (dose: 2.4 mg/kg/injection, schedule: Q04DX003 (ip), vehicle: saline) 131 % of control; (dose: 3.0 mg/kg/injection, schedule: Q01DX009 (ip), vehicle: saline) 133 % of control [5 of 6 alive]. Further, the T/C runs as follows: (dose: 8.0 mg/kg/injection, schedule: Q04DX003 (ip), vehicle: saline) 145 % of control; (dose: 12.0 mg/kg/injection, schedule: Q04DX003 (ip), vehicle: saline) 145 % of control. Also, the survivor count by setting is: under setting [1], 5 of 6; (dose: 37.0 mg/kg/injection, schedule: Q04DX003 (ip), vehicle: saline) 0 of 6.

As for `CN(C)Cc1c[nH]c2nccnc12`, the survivor count (dose: 200.0 mg/kg/injection, schedule: Q01DX009 (ip), vehicle: saline) was 3 of 6; the survivor count under setting [2] is reported as 4 of 6; the survivor count (dose: 400.0 mg/kg/injection, schedule: Q04DX003 (ip), vehicle: saline) is listed as 0 of 6.

Turning to `CCCCNc1ccc(Nc2ccccc2)cc1`, for the setting “dose: 25.0 mg/kg/injection, schedule: Q01DX009 (ip), vehicle: saline + alcohol”, the T/C was 133 % of control [5 of 6 alive]. Besides, the survivor count reads like this: (dose: 50.0 mg/kg/injection, schedule: Q01DX009 (ip), vehicle: saline + alcohol) 3 of 6; (dose: 100.0 mg/kg/injection, schedule: Q01DX009 (ip), vehicle: saline + alcohol) 0 of 6.

As for `Cn1c(=O)n(C)c2ccccc21`, where the note is “dose: 50.0 mg/kg/injection, schedule: Q01DX001 (ip), vehicle: saline with Tween-80”, the T/C is 127 % of control.

In the case of `CCOC(=O)C(C(=O)OCC)C1c2ccccc2C(=O)N(CCN(C)C)c2ccccc21` (centres undefined), under setting [2], the survivor count is 1 of 6.

On to `Cc1nc2c(N)nn(C)c2nc1C`, for which the survivor count (dose: 400.0 mg/kg/injection, schedule: Q04DX003 (ip), vehicle: saline with Tween-80) is recorded as 1 of 6.

Turning to `CC(NCCCSc1ccccc1)C(O)c1ccc(O)cc1` (centres undefined), under setting [3], the T/C is 125 % of control [5 of 6 alive] and the survivor count was 0 of 6 (2×). The survivor count (dose: 400.0 mg/kg/injection, schedule: Q01DX009 (ip), vehicle: saline with Tween-80) was 0 of 6 (2×).

With `O=[N+]([O-])c1ccc(/C=C/c2nccs2)o1`, for the setting “dose: 400.0 mg/kg/injection, schedule: Q04DX003 (ip), vehicle: Klucel (hydroxypropylcellulose) (HPC)”, the survivor count is listed as 0 of 6.

`CCCCN(CCCC)P(=O)(N1CC1)N1CC1`: under setting [1], the T/C is 142 % of control. Also, the survivor count by setting is: (dose: 50.0 mg/kg/injection, schedule: Q01DX009 (ip), vehicle: saline) 6 of 6; (dose: 100.0 mg/kg/injection, schedule: Q01DX009 (ip), vehicle: saline) 6 of 6.

As to `CC1(C)N=C(N)N=C(N)N1c1ccc(OCCNC(=O)Nc2ccc(S(=O)(=O)F)cc2)c(Cl)c1`, the T/C reads like this: (dose: 7.2 mg/kg/injection, schedule: Q01DX009 (ip), vehicle: saline) 127 % of control; (dose: 11.0 mg/kg/injection, schedule: Q01DX009 (ip), vehicle: saline) 136 % of control [5 of 6 alive]; (dose: 16.0 mg/kg/injection, schedule: Q01DX009 (ip), vehicle: saline) 140 % of control; (dose: 66.0 mg/kg/injection, schedule: Q04DX003 (ip), vehicle: saline) 145 % of control. Moreover, the survivor count is 3 of 6 (dose: 100.0 mg/kg/injection, schedule: Q04DX003 (ip), vehicle: saline); 6 of 6 (dose: 150.0 mg/kg/injection, schedule: Q01DX009 (ip), vehicle: saline); 1 of 6 and 3 of 6 (dose: 150.0 mg/kg/injection, schedule: Q04DX003 (ip), vehicle: saline).
